No constants are given. Whether binding was seen depends on the method and setting. For part of these data: Binding seen in cells or lysates may run through a third protein. Some entries that bind do so weakly or less than the wild type. For part of these data: Sequences can lack the tags named with a protein. Each block holds one molecule with its values, some of them ahead of it.
Legend:
[1] = biological target: T1, GST-ATG6 (Arabidopsis thaliana) (UniProt Q9M367); experiment: pull-down; GST, GST-ATG6 on GST-tag Purification Resin (2 hr, 4°C, washed with PBS), then incubated with NPR1-His for 2 hr at 4°C; western blot with anti-GST and anti-His; only the target purified
T1 sequence: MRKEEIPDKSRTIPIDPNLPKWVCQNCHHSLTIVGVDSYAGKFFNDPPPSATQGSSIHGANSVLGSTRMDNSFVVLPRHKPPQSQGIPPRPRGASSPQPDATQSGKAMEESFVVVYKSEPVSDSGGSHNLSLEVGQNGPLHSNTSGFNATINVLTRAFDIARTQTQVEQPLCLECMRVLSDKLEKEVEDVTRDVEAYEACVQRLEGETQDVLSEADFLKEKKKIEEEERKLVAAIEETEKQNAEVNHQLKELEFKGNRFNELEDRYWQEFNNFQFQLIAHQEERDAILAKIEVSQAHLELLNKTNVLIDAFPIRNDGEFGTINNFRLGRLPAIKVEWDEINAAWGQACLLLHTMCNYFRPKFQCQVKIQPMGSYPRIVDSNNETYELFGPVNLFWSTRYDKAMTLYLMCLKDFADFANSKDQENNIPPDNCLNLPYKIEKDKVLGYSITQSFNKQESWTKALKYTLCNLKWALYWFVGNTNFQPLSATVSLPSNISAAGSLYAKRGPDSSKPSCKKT

By UniProt entry, the sequences of proteins in these tests, tags left out. Where a name states a change or a piece, a line headed by the entry shows the natural chain unless it says otherwise. Residues count along the entry.
UniProt P93002: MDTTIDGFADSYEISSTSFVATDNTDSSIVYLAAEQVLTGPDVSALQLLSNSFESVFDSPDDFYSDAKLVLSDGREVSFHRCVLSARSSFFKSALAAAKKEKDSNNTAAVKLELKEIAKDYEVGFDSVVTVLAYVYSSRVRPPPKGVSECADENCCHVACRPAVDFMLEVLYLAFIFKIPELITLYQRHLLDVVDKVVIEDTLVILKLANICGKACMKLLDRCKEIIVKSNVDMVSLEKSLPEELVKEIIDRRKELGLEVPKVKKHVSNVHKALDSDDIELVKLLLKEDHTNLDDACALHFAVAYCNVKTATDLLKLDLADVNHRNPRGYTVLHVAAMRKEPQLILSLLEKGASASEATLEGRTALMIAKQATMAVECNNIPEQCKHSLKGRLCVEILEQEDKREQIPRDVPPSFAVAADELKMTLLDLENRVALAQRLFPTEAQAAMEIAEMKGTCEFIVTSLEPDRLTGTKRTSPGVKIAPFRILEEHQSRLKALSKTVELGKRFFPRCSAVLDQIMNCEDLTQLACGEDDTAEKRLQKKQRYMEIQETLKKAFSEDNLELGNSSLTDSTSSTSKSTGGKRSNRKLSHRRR
NPR1-C-BD: residues 328-593 of P93002

[2] = biological target: T2, NPR3-BD (Arabidopsis thaliana) (UniProt Q8L746); experiment: two-hybrid; Gal4 system in yeast AH109; NPRs-BD with ATGs-AD; growth on SD/-Trp-Leu-His-Ade with different SA concentrations
T2 sequence: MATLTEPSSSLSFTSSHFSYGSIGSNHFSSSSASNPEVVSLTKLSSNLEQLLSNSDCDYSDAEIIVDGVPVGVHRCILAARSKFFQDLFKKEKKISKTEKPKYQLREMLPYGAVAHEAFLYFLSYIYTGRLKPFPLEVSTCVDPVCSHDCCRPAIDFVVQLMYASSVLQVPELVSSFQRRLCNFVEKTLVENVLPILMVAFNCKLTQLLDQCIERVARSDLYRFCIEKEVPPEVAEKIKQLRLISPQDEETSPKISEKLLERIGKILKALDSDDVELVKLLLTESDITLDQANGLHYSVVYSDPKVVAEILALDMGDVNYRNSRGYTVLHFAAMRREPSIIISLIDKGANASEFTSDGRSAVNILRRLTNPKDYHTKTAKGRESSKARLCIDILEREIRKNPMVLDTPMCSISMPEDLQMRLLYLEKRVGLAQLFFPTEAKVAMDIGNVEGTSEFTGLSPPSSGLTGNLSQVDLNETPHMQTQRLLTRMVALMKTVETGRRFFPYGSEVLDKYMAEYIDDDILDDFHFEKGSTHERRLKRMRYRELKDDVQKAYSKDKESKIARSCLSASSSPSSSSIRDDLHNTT

[3] = biological target: T3, NPR4-BD (Arabidopsis thaliana) (UniProt Q5ICL9); experiment: as above
T3 sequence: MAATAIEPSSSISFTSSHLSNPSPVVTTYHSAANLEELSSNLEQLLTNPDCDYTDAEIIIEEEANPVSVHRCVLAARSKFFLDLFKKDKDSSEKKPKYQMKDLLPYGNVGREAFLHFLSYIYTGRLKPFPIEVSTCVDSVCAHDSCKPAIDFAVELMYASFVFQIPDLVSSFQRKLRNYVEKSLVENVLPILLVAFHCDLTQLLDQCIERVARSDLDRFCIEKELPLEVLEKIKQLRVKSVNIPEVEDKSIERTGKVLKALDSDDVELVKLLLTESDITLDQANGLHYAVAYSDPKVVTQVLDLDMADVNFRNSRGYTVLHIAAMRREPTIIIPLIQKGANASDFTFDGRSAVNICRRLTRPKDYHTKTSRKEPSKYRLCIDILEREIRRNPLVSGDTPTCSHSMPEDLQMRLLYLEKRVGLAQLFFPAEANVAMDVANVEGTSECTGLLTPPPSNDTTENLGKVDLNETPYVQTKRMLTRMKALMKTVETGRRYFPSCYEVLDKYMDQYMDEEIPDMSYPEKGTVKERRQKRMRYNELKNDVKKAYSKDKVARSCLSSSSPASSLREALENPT

[4] = biological target: NPR1-BD (Arabidopsis thaliana) (UniProt P93002); experiment: as above
[5] = biological target: T2, NPR3-BD (Arabidopsis thaliana); experiment: two-hybrid; Gal4 system in yeast AH109; NPRs as BD bait, ATGs or SnRK2.8 as AD prey; growth on SD/-Trp-Leu-His-Ade, normal conditions (no SA)
[6] = biological target: T3, NPR4-BD (Arabidopsis thaliana); experiment: as above
[7] = biological target: NPR1-BD (Arabidopsis thaliana) (UniProt P93002); experiment: as above
[8] = biological target: NPR1-C-BD (Arabidopsis thaliana) (UniProt P93002); experiment: as above
[9] = biological target: NPR1-GFP (Arabidopsis thaliana) (UniProt P93002); experiment: co-IP; N. benthamiana leaves transiently transformed with ATG6-mCherry + NPR1-GFP; lysate with 150 mM NaCl, 0.2% NP40; IP with GFP-Trap Magnetic Agarose; blots with ATG6 and GFP antibodies
[10] = biological target: NPR1-nYFP (Arabidopsis thaliana) (UniProt P93002); experiment: split reporter; BiFC: cYFP and nYFP fusions co-expressed in leaves of nls-mCherry N. benthamiana for 3 days; YFP by confocal microscopy

B1: ATG6-AD (protein, UniProt Q9M367 1-517)
chain: MRKEEIPDKSRTIPIDPNLPKWVCQNCHHSLTIVGVDSYAGKFFNDPPPSATQGSSIHGANSVLGSTRMDNSFVVLPRHKPPQSQGIPPRPRGASSPQPDATQSGKAMEESFVVVYKSEPVSDSGGSHNLSLEVGQNGPLHSNTSGFNATINVLTRAFDIARTQTQVEQPLCLECMRVLSDKLEKEVEDVTRDVEAYEACVQRLEGETQDVLSEADFLKEKKKIEEEERKLVAAIEETEKQNAEVNHQLKELEFKGNRFNELEDRYWQEFNNFQFQLIAHQEERDAILAKIEVSQAHLELLNKTNVLIDAFPIRNDGEFGTINNFRLGRLPAIKVEWDEINAAWGQACLLLHTMCNYFRPKFQCQVKIQPMGSYPRIVDSNNETYELFGPVNLFWSTRYDKAMTLYLMCLKDFADFANSKDQENNIPPDNCLNLPYKIEKDKVLGYSITQSFNKQESWTKALKYTLCNLKWALYWFVGNTNFQPLSATVSLPSNISAAGSLYAKRGPDSSKPSCKKT
binding [2]: binds
binding [3]: binds
binding [4]: binds
binding [5]: binds
binding [6]: binds
binding [7]: binds
binding [8]: binds

B2: ATG6-mCherry (protein, UniProt Q9M367 1-517)
chain: MRKEEIPDKSRTIPIDPNLPKWVCQNCHHSLTIVGVDSYAGKFFNDPPPSATQGSSIHGANSVLGSTRMDNSFVVLPRHKPPQSQGIPPRPRGASSPQPDATQSGKAMEESFVVVYKSEPVSDSGGSHNLSLEVGQNGPLHSNTSGFNATINVLTRAFDIARTQTQVEQPLCLECMRVLSDKLEKEVEDVTRDVEAYEACVQRLEGETQDVLSEADFLKEKKKIEEEERKLVAAIEETEKQNAEVNHQLKELEFKGNRFNELEDRYWQEFNNFQFQLIAHQEERDAILAKIEVSQAHLELLNKTNVLIDAFPIRNDGEFGTINNFRLGRLPAIKVEWDEINAAWGQACLLLHTMCNYFRPKFQCQVKIQPMGSYPRIVDSNNETYELFGPVNLFWSTRYDKAMTLYLMCLKDFADFANSKDQENNIPPDNCLNLPYKIEKDKVLGYSITQSFNKQESWTKALKYTLCNLKWALYWFVGNTNFQPLSATVSLPSNISAAGSLYAKRGPDSSKPSCKKT
binding [9]: binds

B3: ATG6-cYFP (protein, UniProt Q9M367 1-517)
chain: MRKEEIPDKSRTIPIDPNLPKWVCQNCHHSLTIVGVDSYAGKFFNDPPPSATQGSSIHGANSVLGSTRMDNSFVVLPRHKPPQSQGIPPRPRGASSPQPDATQSGKAMEESFVVVYKSEPVSDSGGSHNLSLEVGQNGPLHSNTSGFNATINVLTRAFDIARTQTQVEQPLCLECMRVLSDKLEKEVEDVTRDVEAYEACVQRLEGETQDVLSEADFLKEKKKIEEEERKLVAAIEETEKQNAEVNHQLKELEFKGNRFNELEDRYWQEFNNFQFQLIAHQEERDAILAKIEVSQAHLELLNKTNVLIDAFPIRNDGEFGTINNFRLGRLPAIKVEWDEINAAWGQACLLLHTMCNYFRPKFQCQVKIQPMGSYPRIVDSNNETYELFGPVNLFWSTRYDKAMTLYLMCLKDFADFANSKDQENNIPPDNCLNLPYKIEKDKVLGYSITQSFNKQESWTKALKYTLCNLKWALYWFVGNTNFQPLSATVSLPSNISAAGSLYAKRGPDSSKPSCKKT
binding [10]: binds

Now from value to molecule:

binding [1]: binds
Molecule: NPR1-His (from UniProt P93002 1-593)

binding [10]: binds
B4: SnRK2.8-cYFP (protein, UniProt Q9M9E9 1-343)
chain: MERYEIVKDIGSGNFGVAKLVRDKFSKELFAVKFIERGQKIDEHVQREIMNHRSLIHPNIIRFKEVLLTATHLALVMEYAAGGELFGRICSAGRFSEDEARFFFQQLISGVNYCHSLQICHRDLKLENTLLDGSEAPRVKICDFGYSKSGVLHSQPKTTVGTPAYIAPEVLSTKEYDGKIADVWSCGVTLYVMLVGAYPFEDPSDPKDFRKTIGRILKAQYAIPDYVRVSDECRHLLSRIFVANPEKRITIEEIKNHSWFLKNLPVEMYEGSLMMNGPSTQTVEEIVWIIEEARKPITVATGLAGAGGSGGSSNGAIGSSSMDLDDLDTDFDDIDTADLLSPL

binding [7]: binds
B5: SnRK2.8-AD (protein, UniProt Q9M9E9 1-343)
chain: MERYEIVKDIGSGNFGVAKLVRDKFSKELFAVKFIERGQKIDEHVQREIMNHRSLIHPNIIRFKEVLLTATHLALVMEYAAGGELFGRICSAGRFSEDEARFFFQQLISGVNYCHSLQICHRDLKLENTLLDGSEAPRVKICDFGYSKSGVLHSQPKTTVGTPAYIAPEVLSTKEYDGKIADVWSCGVTLYVMLVGAYPFEDPSDPKDFRKTIGRILKAQYAIPDYVRVSDECRHLLSRIFVANPEKRITIEEIKNHSWFLKNLPVEMYEGSLMMNGPSTQTVEEIVWIIEEARKPITVATGLAGAGGSGGSSNGAIGSSSMDLDDLDTDFDDIDTADLLSPL
